Assay results published in patent US20190125715A1, “CDDO-Me AS A THERAPY FOR LUPUS” (priority 2014, published 2019).
At least one structure is not confirmed: it was looked up by name or label, or the drawing left a doubt.

System: NZM2410 mice
Assay: Treatment experiment after disease onset in NZM2410 mice with proteinuria
Format: in vivo, mouse
Conditions: 7-month-old NZM2410 mice with proteinuria, 3 mg/kg oral gavage 5 times per week, 2 months

With COC(=O)[C@]12CCC(C)(C)C[C@H]1[C@H]1C(=O)C=C3[C@@]4(C)C=C(C#N)C(=O)C(C)(C)[C@@H]4CC[C@@]3(C)[C@]1(C)CC2 [CDDO-Me, methyl-2-cyano-3,12-dioxooleana-1,9-dien-28-oate] the survival was “improving survival”.
